# Measured data: PubChem BioAssay AID1224830 (NIAID, 2016)
# Screen: 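Host factors that control LPS-induced TNF expression in human macrophages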 (primary screen)
# System: human THP-1 monocytic leukaemia cells, TNF dual-luciferase reporter clone, PMA-differentiated to macrophage-like cells
# Reagents: siRNA pool against human genes, 50 nM
# Timing: LPS for 4 h, given about 3 days after siRNA transfection
# Conditions: bacterial LPS (TLR4 ligand), 10 ng/ml
# Measurement: 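Ratio of firefly to renilla light, scaled to the plate median and expressed as a robust z-score per replicate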
# Direction: TNF reporter robust z-score: higher = stronger TNF reporter response to LPS
# Rule for the call: 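Each well counts as active if its z-score is over 2.8 or under -1.5; controls are left without a call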
# The deposit covers about 18,000 reagents; shown is a part drawn at random. In the full data, about 2,900 (16%) got an active call. 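Calls are made per well; low scores hint the gene aids the LPS response, high scores that it dampens it.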 Repeated entries: four replicate wells of each siRNA pool.
Gene,TNF reporter robust z-score,call
COL7A1,-0.18,inactive
COL7A1,1.08,inactive
COL7A1,-0.09,inactive
COL7A1,-0.04,inactive
HACL2,0.23,inactive
HACL2,0.32,inactive
HACL2,0.43,inactive
HACL2,1.82,inactive
PCNA,-1.26,inactive
PCNA,-1.05,inactive
PCNA,-1.1,inactive
PCNA,-1.4,inactive
ZNF695,-1.18,inactive
ZNF695,0.55,inactive
ZNF695,-0.3,inactive
ZNF695,-0.75,inactive
STPG1,-0.29,inactive
STPG1,0.5,inactive
STPG1,1.36,inactive
STPG1,0.37,inactive
SANBR,-0.45,inactive
SANBR,-0.13,inactive
SANBR,0.76,inactive
SANBR,0.66,inactive
TUBG1,-0.2,inactive
TUBG1,0.26,inactive
TUBG1,0.47,inactive
TUBG1,-0.5,inactive
CCZ1B,-0.3,inactive
CCZ1B,0.74,inactive
CCZ1B,0.49,inactive
CCZ1B,0.81,inactive
ODAD1,-0.93,inactive
ODAD1,-1.04,inactive
ODAD1,4.28,active
ODAD1,-1.08,inactive
ARFGAP1,-0.19,inactive
ARFGAP1,0.96,inactive
ARFGAP1,0.29,inactive
ARFGAP1,0.06,inactive
KRTAP5-4,-1.52,active
KRTAP5-4,-1.24,inactive
KRTAP5-4,-0.76,inactive
KRTAP5-4,-0.89,inactive
OR2M3,0.09,inactive
OR2M3,-0.86,inactive
OR2M3,-0.98,inactive
OR2M3,-0.14,inactive
PLBD1,3.23,active
PLBD1,2.93,active
PLBD1,2.55,inactive
PLBD1,6.46,active
RANBP3,0.36,inactive
RANBP3,1.38,inactive
RANBP3,-0.6,inactive
RANBP3,1.15,inactive
TRMT61A,-0.16,inactive
TRMT61A,0.07,inactive
TRMT61A,-0.65,inactive
TRMT61A,-0.33,inactive
VPS8,-1.05,inactive
VPS8,0.53,inactive
VPS8,0.8,inactive
VPS8,-0.96,inactive
GPIHBP1,-0.92,inactive
GPIHBP1,-0.87,inactive
GPIHBP1,-1.24,inactive
GPIHBP1,-0.77,inactive
GIPC3,-1.03,inactive
GIPC3,0.84,inactive
GIPC3,-0.81,inactive
GIPC3,-0.15,inactive
PCP4,1.23,inactive
PCP4,1.51,inactive
PCP4,1.44,inactive
PCP4,0.81,inactive
OSGIN2,-0.01,inactive
OSGIN2,0.46,inactive
OSGIN2,1.96,inactive
OSGIN2,1.64,inactive
ADA,-0.66,inactive
ADA,-0.68,inactive
ADA,-0.3,inactive
COL10A1,-0.55,inactive
COL10A1,-1.25,inactive
COL10A1,-0.69,inactive
COL10A1,0.48,inactive
RPS8,-1.27,inactive
RPS8,-1.18,inactive
RPS8,-1.41,inactive
PABPC1,-0.51,inactive
PABPC1,-0.29,inactive
PABPC1,-1.03,inactive
PABPC1,-1.07,inactive
FJX1,0.49,inactive
FJX1,2.94,active
FJX1,1.1,inactive
FJX1,0.5,inactive
MAGEC1,0.07,inactive
MAGEC1,-0.4,inactive
MAGEC1,-0.08,inactive
MAGEC1,0.02,inactive
RPS17P16,0.38,inactive
RPS17P16,0.34,inactive
RPS17P16,0.52,inactive
RPS17P16,0.2,inactive
SLC44A5,-0.87,inactive
SLC44A5,2.52,inactive
SLC44A5,2.11,inactive
SLC44A5,-0.14,inactive
TSKU,0.01,inactive
TSKU,0.12,inactive
TSKU,-0.62,inactive
TSKU,-0.21,inactive
IMMP1L,1.6,inactive
IMMP1L,1.1,inactive
IMMP1L,0.59,inactive
IMMP1L,3.24,active
FLVCR2,0.58,inactive
FLVCR2,-0.49,inactive
FLVCR2,-0.52,inactive
FLVCR2,0.76,inactive
CA4,-1.44,inactive
CA4,-1.2,inactive
CA4,-1.34,inactive
CA4,-1.52,active
PRICKLE1,-2.49,active
PRICKLE1,-1.1,inactive
PRICKLE1,-1.55,active
PRICKLE1,0.94,inactive
DCLRE1A,-1.05,inactive
DCLRE1A,0.54,inactive
DCLRE1A,0.04,inactive
DCLRE1A,-0.53,inactive
TDRD7,-1.41,inactive
TDRD7,-0.97,inactive
TDRD7,-1.31,inactive
TDRD7,-0.46,inactive
FCRL6,0.6,inactive
FCRL6,0.67,inactive
FCRL6,1.45,inactive
FCRL6,1.35,inactive

20 entries from above, arranged by “TNF reporter robust z-score”, high to low:
Gene,TNF reporter robust z-score,call
OSGIN2,1.96,inactive
OSGIN2,1.64,inactive
PCP4,1.51,inactive
PCP4,1.44,inactive
PCP4,1.23,inactive
GIPC3,0.84,inactive
PCP4,0.81,inactive
OSGIN2,0.46,inactive
OSGIN2,-0.01,inactive
GIPC3,-0.15,inactive
ADA,-0.3,inactive
ADA,-0.66,inactive
ADA,-0.68,inactive
GPIHBP1,-0.77,inactive
GIPC3,-0.81,inactive
GPIHBP1,-0.87,inactive
GPIHBP1,-0.92,inactive
VPS8,-0.96,inactive
GIPC3,-1.03,inactive
GPIHBP1,-1.24,inactive
